Two molecules from doi:10.1101/2023.05.26.542399 can be followed below.

Results are given in words; binding and its absence hold for the method and conditions named. Some results given as binding are weak or reduced against the parent protein; the word gives no strength.

Assay [1] deals with T1, A. thaliana Ku70 (co-expressed with Ku80) (Arabidopsis thaliana) (UniProt Q9FQ08).
T1 sequence: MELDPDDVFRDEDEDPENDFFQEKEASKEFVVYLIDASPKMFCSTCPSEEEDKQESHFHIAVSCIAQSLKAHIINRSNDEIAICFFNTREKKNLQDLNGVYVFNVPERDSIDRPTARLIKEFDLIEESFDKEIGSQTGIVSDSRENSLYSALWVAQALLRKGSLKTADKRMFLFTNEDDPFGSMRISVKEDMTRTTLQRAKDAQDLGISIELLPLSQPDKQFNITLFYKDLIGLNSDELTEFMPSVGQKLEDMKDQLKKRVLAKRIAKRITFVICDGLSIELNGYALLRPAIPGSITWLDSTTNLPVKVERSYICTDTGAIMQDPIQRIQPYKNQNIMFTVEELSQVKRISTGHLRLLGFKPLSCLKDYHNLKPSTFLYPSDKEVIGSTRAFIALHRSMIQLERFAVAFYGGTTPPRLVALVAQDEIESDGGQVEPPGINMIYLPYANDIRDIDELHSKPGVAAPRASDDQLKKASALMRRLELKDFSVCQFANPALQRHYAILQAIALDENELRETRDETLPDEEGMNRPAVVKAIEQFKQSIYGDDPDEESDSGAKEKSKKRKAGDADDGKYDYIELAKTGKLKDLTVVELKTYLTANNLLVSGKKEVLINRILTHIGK
Put plainly: co-purification.

Assay [2] deals with T2, A. thaliana DNA ligase IV (AtLIG4), co-expressed with AtXRCC4 (Arabidopsis thaliana) (UniProt Q9LL84).
T2 sequence: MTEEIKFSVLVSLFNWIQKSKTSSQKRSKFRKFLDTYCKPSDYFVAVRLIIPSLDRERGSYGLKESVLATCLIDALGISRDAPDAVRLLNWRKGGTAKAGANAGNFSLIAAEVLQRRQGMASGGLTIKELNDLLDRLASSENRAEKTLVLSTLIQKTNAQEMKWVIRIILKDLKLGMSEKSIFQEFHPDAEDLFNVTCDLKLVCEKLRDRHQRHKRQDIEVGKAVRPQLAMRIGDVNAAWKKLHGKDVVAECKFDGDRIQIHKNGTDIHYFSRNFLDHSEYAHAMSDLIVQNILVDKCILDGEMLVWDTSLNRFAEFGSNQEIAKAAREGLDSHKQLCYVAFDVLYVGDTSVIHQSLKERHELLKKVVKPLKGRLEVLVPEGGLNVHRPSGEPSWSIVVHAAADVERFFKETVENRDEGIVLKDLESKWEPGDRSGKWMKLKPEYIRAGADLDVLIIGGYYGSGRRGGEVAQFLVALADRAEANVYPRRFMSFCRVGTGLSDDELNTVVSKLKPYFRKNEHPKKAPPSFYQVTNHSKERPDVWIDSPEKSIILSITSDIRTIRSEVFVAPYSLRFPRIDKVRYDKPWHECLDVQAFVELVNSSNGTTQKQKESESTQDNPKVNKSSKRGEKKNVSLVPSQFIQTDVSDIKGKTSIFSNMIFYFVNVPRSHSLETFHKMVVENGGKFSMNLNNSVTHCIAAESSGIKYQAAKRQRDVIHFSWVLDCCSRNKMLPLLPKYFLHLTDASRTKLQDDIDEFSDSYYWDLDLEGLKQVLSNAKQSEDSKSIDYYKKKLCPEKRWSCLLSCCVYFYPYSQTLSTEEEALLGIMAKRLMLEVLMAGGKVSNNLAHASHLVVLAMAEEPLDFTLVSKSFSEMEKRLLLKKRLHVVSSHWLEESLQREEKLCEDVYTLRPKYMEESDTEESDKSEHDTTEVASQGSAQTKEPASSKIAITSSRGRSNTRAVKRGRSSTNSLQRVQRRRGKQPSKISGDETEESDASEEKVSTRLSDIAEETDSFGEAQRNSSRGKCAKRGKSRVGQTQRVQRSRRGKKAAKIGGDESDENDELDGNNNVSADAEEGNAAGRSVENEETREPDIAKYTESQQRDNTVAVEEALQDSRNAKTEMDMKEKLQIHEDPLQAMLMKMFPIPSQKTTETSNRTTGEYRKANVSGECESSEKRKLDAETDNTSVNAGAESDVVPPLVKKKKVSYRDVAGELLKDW
Put plainly: co-purification.

B1: A. thaliana Ku80 (co-expressed with Ku70) (protein, UniProt Q9FQ09 1-680)
chain: MARNREGLVLVLDVGPAMRSVLPDVEKACSMLLQKKLIYNKYDEVGIVVFGTEETGNELAREIGGYENVTVLRNIRVVDELAAEHVKQLPRGTVAGDFLDALIVGMDMLIKMYGNAHKGKKRMCLITNAACPTKDPFEGTKDDQVSTIAMKMAAEGIKMESIVMRSNLSGDAHERVIEENDHLLTLFSSNAIAKTVNVDSPLSLLGSLKTRRVAPVTLFRGDLEINPTMKIKVWVYKKVAEERLPTLKMYSDKAPPTDKFAKHEVKVDYDYKVTAESTEVIAPEERIKGFRYGPQVIPISPDQIETLKFKTDKGMKLLGFTEASNILRHYYMKDVNIVVPDPSKEKSVLAVSAIAREMKETNKVAIVRCVWRNGQGNVVVGVLTPNVSERDDTPDSFYFNVLPFAEDVREFPFPSFNKLPSSWKPDEQQQAVADNLVKMLDLAPSAEEEVLKPDLTPNPVLQRFYEYLELKSKSTDATLPPMDGTFKRLMEQDPELSSNNKSIMDTFRGSFEVKENPKLKKASKRLLRDKPSGSDDEDNRMITYDAKENKIDIVGDANPIQDFEAMISRRDKTDWTEKAITQMKNLIMKLVENCTDEGDKALECVLALRKGCVLEQEPKQFNEFLNHLFKLCQERNLSHLLEHFMSKKITLIPKSEAADSDIVDENAGDFIVKQESMLES
In the case of B1, the binding entry in assay [1] is recorded as “binds”.

B2: A. thaliana XRCC4 (AtXRCC4), co-expressed with AtLIG4 in Sf9 (protein, UniProt Q682V0 1-264)
chain: MIGVDSKSSSTTFIETMVESEKTKHTCLRLEISGADPIFVKGTWHNSRFDISVTDGSSSWICNATEEEVAERAAQWDQPVSEYLKLAEQYLGFQQPNSVYSFSDALEGSKRLSWTFEKEGTKLEWRWKCKPSDDSKKITVGILDFLMEANIRLSEEVVNKTRSFEKMRSEAERCLAQGEKLCDEKTEFESATYAKFLSVLNAKKAKLRALRDKEDSVRVVEEEESTDKAESFESGRSDDEKSEEEASKKATSSKARGGKRAARS
For B2, the binding result in assay [2] is “binds”.
